# The whole screen tested about 340,000 compounds, of which about 1,200 (0.35%) were called active. The inconclusive results got no clear call from the source; some entries with a clear call stand among them for comparison. No stated cut-off is given here; in the data, active means inhibition above about 50% (passing the limit was not always enough); inconclusive means no clear call, values can overlap the other calls; inactive means below about 31%.
# Assay: blockers of Vif multimerization in cells – imaging, HEK293T, single point, primary screen (AID 602346)
# Conditions: Vif self-association by quenched fluorescence, 24 h, at 7.49 µM, stronger effect = higher value
row,Compound,inhibition
1,CCOC(=O)c1cc(-c2ccc(Cl)s2)[nH]n1,inconclusive: 23.3%
2,CSC[C@H]1CN(Cc2ccccc2)C(=O)[C@@H]1CC(=O)Nc1ccc(Br)cc1,inactive: 0.287%
3,CCOc1ccc(/C=C\C(C)=N\O)cc1,inconclusive: 36.9%
4,CCOc1cc(N2CCOCC2)c(OCC)cc1NC(=O)c1ccc(OC)c(S(=O)(=O)N2CCOCC2)c1,inconclusive: 32.8%
5,O=C(NCc1ccc(OC(F)(F)F)cc1)c1cccc2c1C(=O)c1ccc(N3CCCCC3)cc1S2(=O)=O,active: 55.1%
6,Cc1noc(/C=C/N(C)C)c1S(=O)(=O)N1CCCC(C(=O)Nc2ccc3c(c2)OCO3)C1 (stereo unspecified),inconclusive: 29.4%
7,O=C(CN(C(=O)CNS(=O)(=O)c1ccccc1)c1ccc(Cl)cc1)NCC1CCCO1 (stereo unspecified),inconclusive: 40.6%
8,CNc1ccc2nnc(C(F)(F)C(F)(F)C(F)(F)F)n2n1,inactive: 18.4%
9,COc1ccc(NC(=O)CCn2c(=S)[nH]c3ccccc3c2=O)cc1Cl,active: 56.7%
10,Cc1ccc(NC(=O)COC(=O)c2ccc([N+](=O)[O-])o2)cc1S(=O)(=O)N1CCCCCC1,inactive: -1.66%
11,Cc1cccc2c1cnn2C(=O)Nc1ccc(Br)cc1F,inactive: -15.9%
12,Cc1cc(NC(=O)NC2(C(F)(F)F)Oc3ccc(Cl)cc3O2)no1 (stereo unspecified),active: 105%
13,CCOC(=O)c1[nH]ncc1CN1CCN(Cc2ccccc2)C(CCO)C1 (stereo unspecified),inactive: -0.467%
14,Nn1c(SCC(=O)Nc2ccc(N3CCOCC3)cc2)nnc1-c1ccccc1F,inconclusive: 33.4%
15,O=C(COC(=O)c1ccncc1)c1ccc(Br)cc1,inconclusive: 39.7%
16,CCn1ncc(Br)c1C(=O)Nc1sc2c(c1C(=O)OC)CCC2,inactive: -7.3%
17,CCOc1ccc(NS(=O)(=O)N(C)C)cc1,inconclusive: 40.6%
18,Cc1[nH]n(-c2ccccc2)c(=O)c1C(c1cccc([N+](=O)[O-])c1O)c1c(C)[nH]n(-c2ccccc2)c1=O,inactive: -0.438%
19,O=C(COC(=O)c1ccc(Cl)nc1)Nc1ccc(N2CCCCC2)cc1,inconclusive: 44.1%
20,CCc1nnc(NC(=O)CSc2nnc(Cc3ccc(OC)cc3)o2)s1,inconclusive: 49.6%
21,N=c1c2c(ncn1CCN1CCOCC1)Oc1ccc3ccccc3c1C2c1ccccc1 (stereo unspecified),inconclusive: 37.9%
22,CC(=O)OC1(C)C=Cc2ccccc2C1=NS(=O)(=O)c1ccccc1 (stereo unspecified),inconclusive: 47.2%

row,Compound,inhibition
1,CC(C)(C)c1ccc(C(=O)NCc2nnc(SCC(=O)NC3CCCC3)o2)cc1,inconclusive: 44.4%
2,COc1cc2c(c(OC)c1OC)-c1ccc(OC)c(=O)cc1[C@@H](NC(C)=O)CC2,inconclusive: 45.7%
3,CCCCn1c(=O)c(CCC(=O)O)nc2ccccc21,inactive: -4.2%
4,Cc1nnc(SCC(=O)N/N=C/c2cc(Cl)c(O)c(Cl)c2)s1,inactive: -4.49%
5,CC[C@]12c3[nH]c4cc(-c5ccco5)ccc4c3CCN1C(=O)[C@@H](CC(=O)NCc1ccco1)C[C@@H]2C(=O)N1CCN(C(=O)C2CC2)CC1,inactive: 20.2%
6,C/C(=N\Nc1ccccn1)c1ccc2c(c1)OCO2,inactive: 10.8%
7,Cc1ccc(SCC(=O)OCC(=O)NCCc2ccccc2)cc1,inconclusive: 30.1%
8,CCCOc1ccc(-c2c(C(=O)N/N=C/c3ccc(C)cc3)nnn2-c2nonc2N)cc1,active: 54.3%
9,Nn1c(COc2ccccc2F)nnc1SCC(=O)NCC1CCCO1 (stereo unspecified),inconclusive: 34.9%
10,O[Si](CCCN1CCCCC1)(c1ccc(F)cc1)C1CCCCC1 (stereo unspecified),inconclusive: 36.3%
11,Fc1ccc(NC(=S)Nc2ccc3nccnc3c2)cc1,inactive: -14%
12,Cc1nc2nc(SCc3ccccc3)[nH]n2c(=O)c1CCC(C)C,inconclusive: 37.8%
13,COc1ccc(N(CC(=O)Nc2cc(C)ccc2C)S(=O)(=O)c2c(C)noc2C)cc1,inactive: -8.14%
14,C[C@H](NS(=O)(=O)c1ccc(Cl)cc1)C(=O)OCC(=O)c1ccc[nH]1,inconclusive: 31%
15,CCOC(=O)C1=C(C)NC(C)=C(C(=O)OC)C1c1cccc([N+](=O)[O-])c1 (stereo unspecified),active: 135%
16,COc1cc2c(cc1OC)/C(=C/C(=O)c1ccc(OC)c([N+](=O)[O-])c1)NCC2,active: 53%
17,Nc1nonc1-n1nnc(C(=O)N/N=C/c2ccc(Br)cc2)c1CSC1=NCCS1,inconclusive: 29.4%
18,CSc1nc2cc(S(=O)(=O)N3CCCCC3)ccc2s1,inconclusive: 28.9%
19,N#Cc1ccc(C(=O)OCC(=O)Nc2cccc(S(=O)(=O)NC3=NCCC3)c2)cc1,inconclusive: 46.5%
20,OC(CON=C1c2ccccc2-c2ccccc21)CN1CCNCC1 (stereo unspecified),inconclusive: 24.5%
21,COc1ccc(/C=C2/CC/C(=C\c3ccc(OC)c(OC)c3OC)C2=O)c(OC)c1OC,inconclusive: 23.9%
22,OC(c1ccccc1)C(NCCNCc1ccccc1)c1ccccc1 (stereo unspecified),inconclusive: 37.4%

# Grouped by structure: those above containing a CF3 group.
row,Compound,inhibition
5,O=C(NCc1ccc(OC(F)(F)F)cc1)c1cccc2c1C(=O)c1ccc(N3CCCCC3)cc1S2(=O)=O,active: 55.1%
8,CNc1ccc2nnc(C(F)(F)C(F)(F)C(F)(F)F)n2n1,inactive: 18.4%
12,Cc1cc(NC(=O)NC2(C(F)(F)F)Oc3ccc(Cl)cc3O2)no1 (stereo unspecified),active: 105%

# (next part)

row,Compound,inhibition
1,CC(OC(=O)c1ccc([N+](=O)[O-])cc1)C(=O)NCC1CCCCC1 (stereo unspecified),inconclusive: 47.9%
2,O=C(N/C(=C\c1ccc(Br)cc1)C(=O)N1CCOCC1)c1ccc(Br)o1,inconclusive: 35.9%
3,CCN1/C(=N\N)c2cccc3cccc1c23,inactive: 2.62%
4,N#C/C(=C\C1=C(N2CCOCC2)C(=C/c2cccc([N+](=O)[O-])c2)/CC1)C(=O)Nc1ccccc1F,inactive: 0.734%
5,Cc1[nH]n(-c2ccccc2)c(=O)c1/C=N/NC(=O)c1ccccc1F,inactive: -1.44%
6,CCN(CC)C(=O)c1ccc2sc([C@@H]3O[C@H](CO)[C@H](O)[C@H](O)[C@H]3O)nc2c1,inactive: -8.8%
7,S=C(NCCc1ccccc1)N/N=C/c1cccc(Cl)c1Cl,inconclusive: 30.7%
8,CC(C)C(C)(C#N)NC(=O)CSc1nc(C2CCCCC2)n(-c2ccccc2)n1 (stereo unspecified),inconclusive: 26.6%
9,Cc1oc2cc3oc(=O)c(CCC(=O)N4CCC(C(=O)O)(c5ccccc5)CC4)c(C)c3cc2c1C,inconclusive: 26.6%
10,CCOC(=O)C1=CN(Cc2cccc(F)c2)S(=O)(=O)NC1c1ccccc1 (stereo unspecified),inconclusive: 49.8%
11,Cc1ccc(C=NCc2ccncc2)c(O)c1,inconclusive: 46.7%
12,CCc1ccc(N2CC(C(=O)Nc3ccc(OC)c(S(=O)(=O)N4CCOCC4)c3)CC2=O)cc1 (stereo unspecified),inconclusive: 24.3%
13,CC(=O)Nc1nonc1-c1nc2ccccc2n1C,active: 79.7%
14,O=c1cc(-c2ccc(Cl)cc2)[nH][nH]1,active: 57.4%
15,COc1ccc(Cc2nnc(N=Nc3c(O)[nH]c4ccc(Br)cc34)[nH]c2=O)cc1,inconclusive: 48%
16,COC(=O)Cc1csc(Nc2ccccc2)n1,inactive: -1.92%
17,Cc1c(Nc2cc(Cl)c3nonc3c2[N+](=O)[O-])c(=O)n(-c2ccccc2)n1C,inactive: -8.85%
18,Cc1nn(Cc2ccccc2)c2c1C(c1cccnc1)C(C#N)=C(N)O2 (stereo unspecified),inconclusive: 41.9%
19,O=C(Nc1ccc(SC(F)F)cc1)C12CCC(CC1)C2,inactive: 23%
20,COc1ccc(-c2[nH]ncc2CNCCCSC)cc1F,inactive: 6.55%
21,CC(=O)N(c1c(C)n(C)n(-c2ccccc2)c1=O)C1(C(=O)NC2CCCC2)CCCCC1,inconclusive: 49.5%
22,CCOC(=O)CNS(=O)(=O)c1cc(-c2n[nH]c(=O)c3ccccc23)ccc1C,inactive: -9.28%

row,Compound,inhibition
1,COC(=O)CC/C(O)=C1\C(=O)CC(C)(C)CC1=NCc1nc2ccccc2[nH]1,active: 77.2%
2,Cc1nnc(NC(=O)CSc2nnc(NC(=O)C(C)(C)C)s2)s1,active: 75.4%
3,COc1ccc(NC(=O)c2sc3nc(-c4cccnc4)ccc3c2N)cc1,active: 92.1%
4,N#Cc1c(-c2ccc3c(c2)OCO3)ccn2nc(-c3cccc(C(F)(F)F)c3)nc12,inconclusive: 31.1%
5,COc1ccc(CCNC(=O)COC(=O)c2ccc(F)c(S(=O)(=O)N3CCOCC3)c2)cc1,inconclusive: 38.7%
6,COc1cc(/C=C2\SC(=Nc3ccc(Cl)c(C(=O)O)c3)NC2=O)c(Br)c(Br)c1O,inconclusive: 35.8%
7,CC(C)C(c1nnnn1CC1CCCO1)N1CCN(C2CCCC2)CC1 (stereo unspecified),active: 57.1%
8,O=C(C1COc2ccccc2O1)N1CCN(Cc2ccc3c(c2)OCO3)CC1 (stereo unspecified),inconclusive: 44.2%
9,Cc1cc(C)cc(-n2c3ccc(NC(=O)Cc4cccc5ccccc45)cc3c(=O)n2C)c1,inactive: 39.1%
10,COC(=O)c1cc(S(=O)(=O)N2CCN(c3cc(C)ccc3C)CC2)c[nH]1,active: 51.4%
11,COc1ccc2nc3ccccc3nc2c1,inactive: -1.17%
12,COC(=O)c1cnc(Nc2nc(C(N)c3ccccc3Cl)cs2)nc1C(F)(F)F (stereo unspecified),inactive: -10.6%
13,CCCCCc1c(O)nc(SCC(=O)NCC2CCCO2)[nH]c1=O (stereo unspecified),inconclusive: 33%
14,Cc1cc(C)c2nc(NCCCNC(=S)NCCCN(C)C)c(C#N)cc2c1,inactive: 9.32%
15,COc1ccc(S(=O)(=O)Nc2cc3c(C(C)=O)c(C)oc3c3ccccc23)cc1,active: 102%
16,O=C1CSC(=Nc2cccc(Cl)c2Cl)N1,inconclusive: 40.5%
17,COc1ccc2nc(-c3ccccc3)cc(C(=O)N3CCC3)c2c1,inactive: -2.28%
18,CCCC[n+]1ccn(C2=C([O-])c3ccccc3C(=O)/C2=N\S(=O)(=O)c2ccccc2)c1,inactive: 20.1%
19,Cc1ccc(CCNC(=O)C(C)n2nc(C)c3c(C)n(-c4ccccc4)nc3c2=O)cc1 (stereo unspecified),inactive: -0.108%
20,COc1ccc(S(=O)(=O)N2CC(C(=O)O)Oc3ccccc32)cc1 (stereo unspecified),inactive: 6.91%

# Looked up above.
# Entry for Cc1cc(C)cc(-n2c3ccc(NC(=O)Cc4cccc5ccccc45)cc3c(=O)n2C)c1 under inhibition: inactive: 39.1%
# Entry for CCCCCc1c(O)nc(SCC(=O)NCC2CCCO2)[nH]c1=O (stereo unspecified) under inhibition: inconclusive: 33%
# Entry for COc1ccc(NC(=O)CCn2c(=S)[nH]c3ccccc3c2=O)cc1Cl under inhibition: active: 56.7%

# Reference: PubChem BioAssay AID602346 (Broad Institute, 2012)
